In publication doi:10.1101/2025.10.13.682074:
No constants are given. Whether binding was seen depends on the method and setting. Some entries that bind do so weakly or less than the wild type.

Molecular target: T1, RNA polymerase α subunit (M. pneumoniae (endogenous in M129-B7 cells)) (UniProt Q50295)
T1 sequence: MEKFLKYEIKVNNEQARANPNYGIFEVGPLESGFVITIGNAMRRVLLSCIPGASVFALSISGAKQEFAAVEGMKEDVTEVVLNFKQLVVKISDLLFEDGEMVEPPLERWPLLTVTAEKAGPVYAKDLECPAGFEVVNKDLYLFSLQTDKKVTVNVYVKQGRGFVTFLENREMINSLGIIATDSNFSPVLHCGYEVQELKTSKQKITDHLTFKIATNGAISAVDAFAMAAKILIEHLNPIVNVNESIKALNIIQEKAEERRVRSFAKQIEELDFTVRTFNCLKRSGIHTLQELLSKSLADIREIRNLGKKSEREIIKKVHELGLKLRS
Experiment: cryo-EM structure

B1: NusA (protein, UniProt P75591 1-540)
chain: MNNQSNHFTNPLLQLIKNVAETKNLAIDDVVLCLKTALAQTYKKHLNYVNVEVNIDFNKGLMQIEQLFDVVDDNNEDYDDFLEMPLSEAKKLNPNLEVGGVLRKPVSLKDIKGDLISKMVLLFNQKINETAFKTVMSDFINEVGQVIEARVEDIDTNKDGGLKGYIVNLETTKGYMPKRELSKGEKLDIGKKYLFVIKEIQKQSSMWPITLSRSDSRLLEFLLNSNTPEIANGTIEIKKMERSPGTKSKVAVISKDPVVDPIAAILGPKGERIRGISEEFNGEIIDIVIWNEDKLKFLVNAVLPAEVVGYNILQDDERDTSIEIVVPANQIANVFGFKGINIRLISNLTGWSSVDVYTEKDAAEQGIEFTRVNFQPQGIFGIKKRRDKISNNPRNNNQQLASDKVFYTSKANVVDDEIIVDLAKQAEAKRVKQIKQEATKPELQLQQELNLEATPKVAAPTPTPAPQPTPAPTKVEPVPPPVSVTPKPIPKVNKPKPVVKPKSVFSITVEADDSKTKPEKSSAKTNTPQTKQTFDNFDDL
- binding: binds
